Experimental data as given in PubChem BioAssay AID1671190 (National Center for Advancing Translational Sciences (NCATS), 2021).
The campaign covered roughly 580,000 compounds. About 6,100 (1.1%) were called active. This list was built around the results that the source calls inconclusive (neither active nor inactive); the mix of calls is not that of the screen. Calls follow the shape of the dose curve; as a rule, active = well fitted inhibition curve with a large enough effect; inconclusive = small, poorly fitted or top-dose-only effect, or another doubt; inactive = no such curve, though single readings can be large or run the other way. A potency beside an inconclusive call is a rough fit, not a confirmed value.

Protein sequences, listed by entry. Tags and fused reporters are not part of them.
UniProt P18054, whole entry, looked up: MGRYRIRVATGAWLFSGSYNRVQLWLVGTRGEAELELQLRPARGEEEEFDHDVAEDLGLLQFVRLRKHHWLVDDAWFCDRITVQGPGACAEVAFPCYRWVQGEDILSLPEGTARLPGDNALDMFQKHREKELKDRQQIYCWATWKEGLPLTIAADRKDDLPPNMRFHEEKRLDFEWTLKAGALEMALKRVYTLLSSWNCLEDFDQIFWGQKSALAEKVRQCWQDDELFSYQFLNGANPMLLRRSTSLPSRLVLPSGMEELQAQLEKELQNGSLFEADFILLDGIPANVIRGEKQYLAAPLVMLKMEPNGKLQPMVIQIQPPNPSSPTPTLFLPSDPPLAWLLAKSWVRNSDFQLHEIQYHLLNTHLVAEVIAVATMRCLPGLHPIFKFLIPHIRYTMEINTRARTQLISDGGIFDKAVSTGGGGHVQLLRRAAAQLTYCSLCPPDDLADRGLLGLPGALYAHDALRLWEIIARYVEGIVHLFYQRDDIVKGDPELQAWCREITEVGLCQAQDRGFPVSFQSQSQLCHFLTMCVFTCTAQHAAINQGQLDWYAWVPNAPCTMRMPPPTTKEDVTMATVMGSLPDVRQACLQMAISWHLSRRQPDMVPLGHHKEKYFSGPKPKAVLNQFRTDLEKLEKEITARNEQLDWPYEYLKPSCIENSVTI

Each compound was assayed against Polyunsaturated fatty acid lipoxygenase ALOX12 (Homo sapiens) (UniProt P18054) (assay: Primary qHTS assay for inhibitors of human arachidonate 12S-lipoxygenase (ALOX12): Round 2). Settings: purified 12hLO, xylenol orange hydroperoxide absorbance; activity change, negative = inhibition: at 108 µM (top of the series) unless noted.
In short: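 Purified human 12hLO at 150 nM in 25 mM Hepes, 0.01% Triton X-100, pH 7.0, preincubated 15 min at room temperature with compound. Reaction started with 40 uM arachidonic acid, 30 min at room temperature. Hydroperoxide measured by Fe-xylenol orange, 573/405 nm absorbance ratio.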
% is scaled to controls: 0 for no effect and ±100 for the full control effect; potency is read from the fitted curve at half-maximal effect.

SMILES | Potency | activity change, negative = inhibition
Cc1nn(CN2CCN(S(=O)(=O)c3cccc(Cl)c3Cl)CC2)c(=O)c2ccccc12 | inconclusive: 0.316 µM [inhibitor, full curve, poor fit] | 
Cc1ccc(OCC(=O)Nc2ccc(Cl)cc2)c(-n2nc3ccccc3n2)c1 | inactive | 
Cc1ccc(-c2csc(Nc3cccc(C)c3C)n2)cc1 | inconclusive: 79.4 µM [inhibitor, partial curve, poor fit] | 
CC1=CC(C)C2(CO)COC(c3ccc(O)cc3)C1C2C (stereo not drawn) | inconclusive: 100 µM [inhibitor, partial curve, poor fit] | 
O=C(CCC(=O)c1ccc(F)cc1)Nc1ccccc1-c1ccccc1 | inconclusive: 56.2 µM [inhibitor, partial curve, poor fit] | 
CC1CCC(C(=O)NC(C)c2ccccc2)CC1 (stereo not drawn) | inactive | 
O=c1[nH]c2ccccc2nc1-c1c[nH]c2ccccc12 | inconclusive: 100 µM [inhibitor, single point] | 
O=C(c1ccc(OCc2cn3ccccc3n2)cc1)N1CCN(c2ccccn2)CC1 | inactive | 
O=C(Nc1nonc1-c1ccc2c(c1)CCCC2)c1cc(=O)c2cc(Cl)ccc2o1 | inactive | 
C=C(C)c1cccc(C(C)(C)NC(=O)NCc2cccnc2)c1 | inconclusive: 100 µM [inhibitor, single point] | 
CC(C)(C)OC(=O)Nc1ccccc1-n1nnnc1C(C(=O)c1ccc(F)cc1)N1CCOCC1 (stereo not drawn) | inconclusive: 112 µM [inhibitor, partial curve, poor fit] | 
CC(=O)Nc1cccc(C(C)NC(=O)Nc2ccc(C(F)(F)F)cc2)c1 (stereo not drawn) | inactive | 
Cc1cccc(NC(=O)CCC(=O)OCC(=O)c2ccc(Oc3ccc([N+](=O)[O-])cc3)cc2)c1 | inactive | 
CCOC(=O)Cn1nc(-c2ccccc2)c2cnc3ccc(OCC)cc3c21 | inactive | 
c1cc(CN2CCn3c(nnc3C3CCCNC3)C2)cs1 (stereo not drawn) | inconclusive: 4.47 µM [inhibitor, full curve, poor fit] | 
Cc1cc(=O)oc(C)c1C(=O)N1CCN(Cc2ccc3c(c2)OCO3)CC1 | inconclusive: 20 µM [inhibitor, single point] | 
COc1cccc(CN(C)C(=O)c2cc(COc3ccc4ncccc4c3)on2)c1 | inactive | 
COC(=O)C1=C2SC(C)C(=O)N2C(N)=C(C#N)C1c1ccc(OC)c(OC)c1 (stereo not drawn) | inconclusive: 44.7 µM [inhibitor, single point] | 
Cc1oc(-c2cccc(Cl)c2)nc1CN1CCC(C(=O)NCCCN2CCN(c3ccccc3F)CC2)CC1 | inactive | 
CCNC(=O)CN1CCN(C(=O)C2CCN(c3nc4ccccc4o3)CC2)CC1 | inactive | 
Cc1cc(F)cc(CC(=O)O)c1 | inconclusive: 112 µM [inhibitor, single point] | 
OC(COC(c1ccc(Cl)cc1)c1ccc(Cl)cc1)CN1CCN(c2ccccn2)CC1 (stereo not drawn) | inconclusive: 39.8 µM [inhibitor, partial curve, poor fit] | 
CCOc1ccc(NC(=S)Nc2ccc(Br)cc2Cl)cc1 | inconclusive: 44.7 µM [inhibitor, partial curve, poor fit] | 

Complete entries, quoted from the list:
`C=C(C)c1cccc(C(C)(C)NC(=O)NCc2cccnc2)c1` is listed with Potency: inconclusive: 100 µM [inhibitor, single point]
`CC1=CC(C)C2(CO)COC(c3ccc(O)cc3)C1C2C` (stereo not drawn) is listed with Potency: inconclusive: 100 µM [inhibitor, partial curve, poor fit]
`O=C(c1ccc(OCc2cn3ccccc3n2)cc1)N1CCN(c2ccccn2)CC1` is listed with Potency: inactive

Later entries

SMILES | Potency | activity change, negative = inhibition
CN(C)S(=O)(=O)c1ccc(-c2nc(C#N)c(NCCCN3CCOCC3)o2)cc1 | inactive | 
O=C1CN(C(=O)Cn2c(=O)c3c(ncn3Cc3ccccc3)n(Cc3ccccc3)c2=O)CCN1 | inactive | 
COCCN1C(=O)C(=O)/C(=C(/O)c2ccc(OCc3ccccc3)cc2C)C1c1cccnc1 (stereo not drawn) | inconclusive: 3.98 µM [inhibitor, full curve, poor fit] | 
Cc1ccc(NC(=S)Nc2cccc3ccccc23)cc1 | inconclusive: 44.7 µM [inhibitor, partial curve, poor fit] | 
O=C(CN(CCc1ccccc1)S(=O)(=O)c1ccc(Br)cc1)NCc1ccc(Cl)cc1 | active: 4.47 µM | 
NC1=C(S(=O)(=O)c2ccccc2)C(c2ccccc2)C(S(=O)(=O)c2ccccc2)=c2s/c(=C/c3ccccc3)c(=O)n21 (stereo not drawn) | inconclusive: 44.7 µM [inhibitor, partial curve, poor fit] | 
C=CCn1c(C(CCCC)CC(O)COCC(C)C)n[nH]c1=S (stereo not drawn) | inconclusive: 50.1 µM [inhibitor, partial curve, poor fit] | 
O=C1N/C(=N/N=C/c2ccco2)SC1Cc1ccccc1 (stereo not drawn) | inactive | 
COc1ccc(OC)c(/C=N\NC(=O)CC(=O)NCCc2ccccc2)c1 | inactive | 
Cc1cccc(OC[C@H]2C[C@@H](NC(=O)Nc3ccccc3)[C@H](O)[C@@H]2O)n1 | inactive | 
Cc1noc(C)c1-c1ccc2ncnc(NC3CC3)c2c1 | inconclusive: 11.2 µM [inhibitor, partial curve, poor fit] | 
O=C(c1cccc(S(=O)(=O)N2CCCCC2)c1)N1CCN(Cc2ccccc2)CC1 | inconclusive: 126 µM [inhibitor, single point] | 
Cc1cc2c(c(=O)n1C)C(Cc1ccccc1)C(C#N)=C(N)O2 (stereo not drawn) | inconclusive: 35.5 µM [inhibitor, partial curve, poor fit] | 
COc1ccc(CC(=O)NNC(=O)[C@@H]2CCCC[C@@H]2C(=O)O)cc1 | inconclusive: 1.41 µM [inhibitor, full curve, poor fit] | 
CCOP(=O)(OCC)C(NC(=O)Nc1ccccc1)c1ccccc1 (stereo not drawn) | inactive | 
O=C(CCS(=O)(=O)c1ccc2c(c1)OCCO2)Nc1cccc(F)c1 |  | inconclusive: -38.3% [inhibitor]
CCc1nc2ccc(C(=O)N(CC)CCN(C)C)cn2c1N(C)Cc1cccs1 | inconclusive: 56.2 µM [inhibitor, partial curve, poor fit] | 
COc1cccc(C2C(C(=O)Nc3ccccc3)=C(C)Nc3nc(SC)nn32)c1OC (stereo not drawn) | inactive | 
O=C(COC(=O)C1CCCCC1)Nc1ccc(N2CCCCC2)cc1 | inconclusive: 89.1 µM [inhibitor, partial curve, poor fit] | 
COCCn1c(-n2nc(C)cc2C)nc2c1c(=O)n(Cc1ccccc1)c(=O)n2C | inconclusive: 126 µM [inhibitor, partial curve, poor fit] | 
CC1Cc2cc(/C(O)=C3/C(=O)C(=O)N(Cc4ccco4)C3c3cccs3)ccc2O1 (stereo not drawn) | inconclusive: 22.4 µM [inhibitor, partial curve, poor fit] | 
COC(=O)c1ccc(C2/C(=C(\O)c3ccc4c(c3)OCCO4)C(=O)C(=O)N2c2nnc(C)s2)cc1 (stereo not drawn) | inconclusive: 2.24 µM [inhibitor, full curve] | 
O=C(N/N=C1/CC2C=CCC12)c1ccco1 (stereo not drawn) | inactive | 

SMILES | Potency | activity change, negative = inhibition
COc1ccccc1CN1CCCn2nc(C)c(-c3ccccc3[S+](C)(=O)[O-])c21 | inconclusive: 112 µM [inhibitor, partial curve, poor fit] | 
CCCSc1nnc(Cc2cc(=O)[nH]c(=O)[nH]2)n1-c1cc(C)ccc1C | inconclusive: 31.6 µM [inhibitor, single point] | 
O=C(N/N=C1/CC2CCC1C2)c1cc2ccccc2cc1O (stereo not drawn) | inactive | 
CN(C)CCNC(=S)NC(c1ccc2c(c1)CCC2)c1cccs1 (stereo not drawn) | inconclusive: 50.1 µM [inhibitor, partial curve, poor fit] | 
O=C(OCc1cc(=O)oc2cc(O)ccc12)c1n[nH]c2ccccc12 | active: 25.1 µM | 
CC(C)C[C@@H](CN1CCC[C@@H]1CN1C(=O)C(=O)NC[C@@H]1Cc1ccc(O)cc1)N1C[C@H](Cc2ccc(O)cc2)N(CC2CCCCCC2)C(=O)C1=O | inconclusive: 39.8 µM [inhibitor, partial curve, poor fit] | 
CCCCC(=O)OC1=C(C(C)=O)N(Cc2ccccc2)S(=O)(=O)c2ccccc21 | inactive | 
c1ccc2c(c1)COC1(CCNC1)CN2CC1CCCCC1 (stereo not drawn) | inconclusive: 63.1 µM [inhibitor, partial curve, poor fit] | 
CCCC(=O)N1CC(=O)Nc2ccc(Cl)cc2C1c1ccccc1 (stereo not drawn) | inactive | 
O=C1CC(c2ccccc2)N(C(=O)CNC(=O)C2(c3ccccc3)CC2)CCCCCCN1 (stereo not drawn) | inactive | 
O=C1CC(c2ccccc2F)c2cc3c(cc2N1)CCC3 (stereo not drawn) | inactive | 
C/C=N/N(c1ccccc1)c1ccccc1 | inconclusive: 12.6 µM [inhibitor, partial curve, poor fit] | 
Cn1ccc2c(-c3ccc(C(C)(C)C)cc3)cc3c(c21)C1CCC3O1 (stereo not drawn) | inconclusive: 1.78 µM [inhibitor, full curve, poor fit] | 
COc1ccc([C@@H]2CC(=O)c3c(O)cc(O)cc3O2)cc1O | inconclusive: 50.1 µM [inhibitor, partial curve, poor fit] | 
O=C(O)c1cccnc1CN1CCCC(c2nc(-c3ccccc3)no2)C1 (stereo not drawn) | inactive | 
CCn1c(CN(C)C)nnc1C1CCN(C(=O)c2cnn3ccccc23)CC1 | inconclusive: 5.01 µM [inhibitor, full curve, poor fit] | 
CN1CCN(c2nc3ccccn3c(=O)c2/C=C(\C#N)S(=O)(=O)c2ccccc2)CC1 | inconclusive: 70.8 µM [inhibitor, single point] | 
COc1ccc(Cc2cnc(NC(=O)c3cc(=O)c4cc(C)ccc4o3)s2)cc1 | inactive | 
Cc1ccc(S(=O)(=O)NCCc2nnc3ccc(SCc4cc(C)ccc4C)nn23)cc1 | inactive | 
O=C(Nc1ccccc1)c1c(F)cccc1F | inactive | 
CCO[C@@H]1OC(C(=O)Nc2ccccc2)=C[C@H](c2ccc(Br)cc2)[C@H]1CCCO | inconclusive: 112 µM [inhibitor, single point] | 
Cn1c(=O)[nH]c(=O)c2c1nc(Sc1ncccn1)n2CCc1ccccc1 | inconclusive: 100 µM [inhibitor, single point] | 
